Measured values reported in patent US7674604.
No constants are given. Whether binding was seen depends on the method and setting. Some binding calls cover weakened binding; strength is not graded here.

Sequences of proteins named here, by UniProt entry; tags and fusion partners are left off. Residues count along the entry.
UniProt P13597, residues 28-485: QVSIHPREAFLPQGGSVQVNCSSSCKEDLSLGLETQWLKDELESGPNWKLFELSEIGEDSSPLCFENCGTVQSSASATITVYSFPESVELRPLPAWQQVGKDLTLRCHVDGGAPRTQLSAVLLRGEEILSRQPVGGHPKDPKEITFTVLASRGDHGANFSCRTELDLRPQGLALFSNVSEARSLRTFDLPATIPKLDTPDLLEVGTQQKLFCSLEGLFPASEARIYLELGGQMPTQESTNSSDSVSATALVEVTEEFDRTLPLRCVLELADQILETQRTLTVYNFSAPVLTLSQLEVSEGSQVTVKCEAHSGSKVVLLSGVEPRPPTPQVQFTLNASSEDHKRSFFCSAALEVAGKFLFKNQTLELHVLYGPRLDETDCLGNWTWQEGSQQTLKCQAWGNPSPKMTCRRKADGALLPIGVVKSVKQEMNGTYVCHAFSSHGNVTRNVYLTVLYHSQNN

Molecular target: murine ICAM-1 (murine) (UniProt P13597)
Assay: BIAcore

binding: binds
B1: recombinant soluble αL I-domain K287C/K294C (G128 to Y307) stabilized in the open conformation, made in E. coli (receptor)
chain: GNVDLVFLFDGSMSLQPDEFQKILDFMKDVMKKLSNTSYQFAAVQFSTSYKTEFDFSDYVKRKDPDALLKHVKHMLLLTNTFGAINYVATEVFREELGARPDATKVLIIITDGEATDSGNIDAAKDIIRYIIGIGKHFQTKESQETLHKFASKPASEFVCILDTFECLKDLFTELQKKIY
modifications: chain 1: disulfide between C160 and C167 (mature C287, C294)
